Measured values as given in PMC3024409.
These are yes or no findings as the source states them, for the method shown. Some binding calls cover weakened binding; strength is not graded here. Where a sequence is shown, tags or fusion partners need not be part of it.

By UniProt entry, the sequences of proteins in these tests, tags left out.
UniProt P41819: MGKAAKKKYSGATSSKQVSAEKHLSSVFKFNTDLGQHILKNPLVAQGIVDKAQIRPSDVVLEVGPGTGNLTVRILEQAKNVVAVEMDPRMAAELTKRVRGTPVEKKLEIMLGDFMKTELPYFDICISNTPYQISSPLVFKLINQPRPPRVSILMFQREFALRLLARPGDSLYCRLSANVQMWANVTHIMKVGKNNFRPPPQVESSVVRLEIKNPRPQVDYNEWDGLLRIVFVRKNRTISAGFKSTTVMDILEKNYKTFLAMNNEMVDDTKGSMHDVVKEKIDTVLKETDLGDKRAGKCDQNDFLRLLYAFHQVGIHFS
UniProt P40160: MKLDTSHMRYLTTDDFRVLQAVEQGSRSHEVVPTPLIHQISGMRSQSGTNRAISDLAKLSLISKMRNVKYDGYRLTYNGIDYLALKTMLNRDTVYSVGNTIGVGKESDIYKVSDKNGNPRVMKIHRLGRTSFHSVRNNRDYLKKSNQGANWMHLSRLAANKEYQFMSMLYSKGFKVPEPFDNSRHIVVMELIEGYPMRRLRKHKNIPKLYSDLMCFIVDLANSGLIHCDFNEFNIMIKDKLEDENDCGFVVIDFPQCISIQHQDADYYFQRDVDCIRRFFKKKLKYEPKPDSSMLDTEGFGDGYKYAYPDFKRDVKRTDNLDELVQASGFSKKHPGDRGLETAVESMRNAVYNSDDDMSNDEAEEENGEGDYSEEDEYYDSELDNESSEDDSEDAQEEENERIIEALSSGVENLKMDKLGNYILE

How the values were obtained:
Assay in all cases: pull-down; 3 µM MBP-tagged bait and 5 µM untagged prey in 50 mM HEPES pH 7.5, 150 mM KCl; 10 min at room temperature, 1 h at 4°C with amylose resin; washed, eluted with 20 mM maltose; SDS-PAGE, Coomassie; both purified
[1] = molecular target: T1, (MBP-)Ltv1 (S. cerevisiae) (UniProt P34078)
T1 sequence: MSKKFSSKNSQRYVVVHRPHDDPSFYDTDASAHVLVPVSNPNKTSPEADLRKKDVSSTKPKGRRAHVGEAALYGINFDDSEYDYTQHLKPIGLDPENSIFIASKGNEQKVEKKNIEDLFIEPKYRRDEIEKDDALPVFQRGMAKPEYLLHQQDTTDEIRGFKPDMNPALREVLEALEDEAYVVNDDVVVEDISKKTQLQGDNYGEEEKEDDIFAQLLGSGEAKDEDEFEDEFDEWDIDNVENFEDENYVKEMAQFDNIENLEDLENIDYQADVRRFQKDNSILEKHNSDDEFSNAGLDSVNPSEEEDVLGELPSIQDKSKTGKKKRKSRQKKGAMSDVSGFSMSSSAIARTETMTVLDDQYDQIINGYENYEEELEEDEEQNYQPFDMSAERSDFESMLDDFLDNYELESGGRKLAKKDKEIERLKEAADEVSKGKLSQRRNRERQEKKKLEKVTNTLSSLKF

[2] = molecular target: T2, (MBP-)Nob1 (S. cerevisiae) (UniProt Q08444)
T2 sequence: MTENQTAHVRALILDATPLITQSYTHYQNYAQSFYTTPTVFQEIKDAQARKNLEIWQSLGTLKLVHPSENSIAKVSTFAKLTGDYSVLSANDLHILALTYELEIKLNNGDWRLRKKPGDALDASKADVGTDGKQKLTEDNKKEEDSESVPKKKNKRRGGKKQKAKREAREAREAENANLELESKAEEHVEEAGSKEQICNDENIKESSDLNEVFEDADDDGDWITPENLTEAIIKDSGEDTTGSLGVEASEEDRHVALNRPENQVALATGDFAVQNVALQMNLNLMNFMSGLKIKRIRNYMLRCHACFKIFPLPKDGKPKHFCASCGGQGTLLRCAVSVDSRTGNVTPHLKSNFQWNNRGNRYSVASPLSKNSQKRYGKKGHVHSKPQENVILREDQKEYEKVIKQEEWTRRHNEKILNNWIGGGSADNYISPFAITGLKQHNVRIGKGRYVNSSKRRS

[3] = molecular target: T3, (MBP-)Rps5 (S. cerevisiae) (UniProt P26783)
T3 sequence: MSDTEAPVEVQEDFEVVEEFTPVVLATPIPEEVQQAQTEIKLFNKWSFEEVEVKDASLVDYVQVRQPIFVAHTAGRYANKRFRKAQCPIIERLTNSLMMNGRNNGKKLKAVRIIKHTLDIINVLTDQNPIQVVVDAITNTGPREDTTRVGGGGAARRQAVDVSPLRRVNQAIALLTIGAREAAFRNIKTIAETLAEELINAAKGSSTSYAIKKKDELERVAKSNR

Substance	binding [1]	binding [2]	binding [3]
Dim1 (untagged) (from UniProt P41819 1-318) (enzyme)	binds weakly		
Rio2 (untagged) (from UniProt P40160 1-425) (enzyme)		binds	binds
